# PubChem BioAssay AID2685 (National Center for Advancing Translational Sciences (NCATS), 2010)
# The other results are listed elsewhere or left out. These are further read-outs of the screen, such as a control signal, another cell line or another target. No call is given for them. Compounds called inactive in the main read-out are mostly missing here. Potencies come from curve fits of mixed quality, noted in brackets.
# Assay: qHTS Assay for Lipid Storage Modulators in Drosophila S3 Cells;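 for cell number change: cells counted by Cell Tracker Red CMTPX staining in the red channel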
# Settings: BODIPY lipid droplet fluorescence, 18-24 h; for cell number change: measured here: cell count max response, cells fed with added oleic acid
# How it was run: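 Drosophila S3 cells loaded with oleic acid (400 uM, as added) and compounds at several concentrations; lipid droplets imaged by 488-nm laser-scanning cytometry, 500–530 nm intensity and object ratio to cell channel. Percent activity normalized to 20 uM Triacsin C.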
# [1] = measured here: cell number channel AC50, cells fed with added oleic acid
# [2] = measured here: lipid fluorescence (Fed channel) AC50, cells fed with added oleic acid
Structure (SMILES),cell number change [%],AC50 [1],AC50 [2]
CCCn1cc(S(=O)(=O)c2ccc(OC)cc2)c(=O)c2cc(OC)ccc21,-4.95,,
O=C(NNC(=S)Nc1ccc(F)cc1F)c1ccco1,-14.4,,
CC(=O)Nc1ccc(Oc2ccc(S(=O)(=O)N3CCCC3)cn2)cc1,2.73,"0.231 µM [falling, partial curve, poor fit]",
CCCn1c(=N)n(CC(=O)c2ccc(Cl)cc2)c2ccccc21,1.05,,
Cc1c(OCc2ccccc2)c(=O)ccn1Cc1ccc(Cl)cc1,-64.9,"18.4 µM [falling, single point]","29.1 µM [falling, single point]"
CCOc1cccc(N(C(=O)CCC(=O)Nc2cc(C)on2)C(C(=O)NC(C)(C)C)c2ccc(OC)cc2)c1 (stereo not given),-1.28,,"5.17 µM [rising, single point]"
O=C(CSc1nc2ccc(Cl)cc2[nH]1)NCc1ccco1,0.0701,,
COCCNC(=O)Cn1cc(C(=O)c2ccco2)c2ccccc21,18.7,"0.461 µM [falling, single point]",
Cc1[nH]n(-c2ccccc2)c(=O)c1N=Nc1cccc(Cl)c1,-5.96,,"3.26 µM [falling, single point]"
C[C@H](NC(=O)c1nc[nH]c1C(=O)N[C@@H](CCCCNC(=O)OC(C)(C)C)C(=O)OC(C)(C)C)C(=O)OCc1ccccc1,44.6,,"25.9 µM [falling, single point]"
Cc1ccc(-n2ncc3c2CCCC3NC(=O)c2csnn2)cc1C (stereo not given),-23.1,"0.0103 µM [falling, full curve, poor fit]","0.0058 µM [falling, full curve]"
CCOc1nc(Nc2ccc([N+](=O)[O-])cc2)nc(NC(C)(C)C)n1,14.1,"3.66 µM [rising, partial curve]",
CCCCCC(=O)NC(=S)Nc1ccc(Cl)cn1,6.32,,"0.00461 µM [falling, full curve]"
Cc1nc(N)nc(-c2ccccc2O)n1,46.4,"2.59 µM [rising, partial curve]",
COc1cccc(NC(=O)CN2CCc3ccccc3C2)c1,-4.23,,"8.2 µM [rising, partial curve]"
COc1cccc(CSc2nc3sc(C)c(C)c3c(=O)n2Cc2ccco2)c1,-1.35,,"29.1 µM [rising, single point]"
Cc1nc(N)ncc1C(=O)Nc1ccccc1,6.51,,"2.59 µM [falling, partial curve]"
CCOc1cc(S(=O)(=O)NCc2ccc3c(c2)OCO3)c(C)cc1C,-7.08,,
COC(=O)c1ccc(C(=O)OC)c(NC(=O)COC(=O)c2ccccc2OC)c1,-48.2,"29.1 µM [falling, single point]",

Structure (SMILES),cell number change [%],AC50 [1],AC50 [2]
COC(=O)CSc1nnc(CNS(=O)(=O)c2ccc(Cl)cc2)n1C,,,"23.1 µM [falling, partial curve]"
COC(=O)c1c(C)oc2ccc(N(C(=O)c3ccncc3)S(=O)(=O)c3ccc(C)cc3)cc12,-32.6,,"1.64 µM [rising, partial curve]"
Cc1cc(NC(=O)COc2ccccc2C)ccc1NC(=O)c1cccs1,-38.9,"5.8 µM [falling, partial curve, poor fit]",
COC(=O)CSc1nsc(SCC(=O)OC)c1C#N,-89.3,"29.1 µM [falling, single point]",
COc1ccc(-n2c(O)c(C=NCC(c3ccco3)N3CCCC3)c3ccccc3c2=O)cc1OC (stereo not given),20.5,"2.06 µM [falling, partial curve]","0.731 µM [falling, single point]"
Cc1ccccc1C(=O)N1CCN(c2ccc(NC(=O)c3cccs3)cc2)CC1,-48.5,"29.1 µM [falling, single point]",
O=C(O)c1cccnc1Sc1ccccc1Cl,-47.4,"32.6 µM [falling, single point]","29.1 µM [falling, partial curve, poor fit]"
CSCCC(=O)N1CCCC(N2CCN(c3cccc(C(F)(F)F)c3)CC2)C1 (stereo not given),2.85,,"1.16 µM [rising, full curve, poor fit]"
O=C(O)c1cccc(-n2c(-c3cnccn3)n[nH]c2=S)c1,-33.7,"18.4 µM [falling, single point]","29.1 µM [falling, single point]"
Cc1ccc(C(C(=O)NC2CCCCC2)N(C(=O)Cc2c[nH]c3ccccc23)c2ccccc2)o1 (stereo not given),4.6,,
CN1CCN(S(=O)(=O)c2ccc(NC(=S)NC(=O)C(C)(C)C)cc2)CC1,-7.52,,"29.1 µM [falling, single point]"
O=C1CCC(O)CCN1CCSc1ccccc1 (stereo not given),-9.71,,"0.00461 µM [rising, full curve, poor fit]"
COc1ccc(CCN2CCCn3c2nc2c3c(=O)n(CC(C)C)c(=O)n2C)cc1OC,-32.6,"20.6 µM [falling, single point]","29.1 µM [falling, single point]"
COc1ccc(-c2n[nH]c(C)c2-c2ccc(OC)c(OC)c2)c(O)c1,75.2,"0.82 µM [rising, full curve]","10.3 µM [rising, partial curve]"
CC1(C)CC(=O)C(CO)=C(c2cccc3ccccc23)C1=O,-2.13,,"1.64 µM [rising, partial curve, poor fit]"
CC(Oc1cccc(Cl)c1)C(=O)Nc1cc(Cl)ccc1N1CCOCC1 (stereo not given),-28,,"0.146 µM [rising, full curve, poor fit]"
COC(=O)c1c(NC(=O)CN2CCCc3ccccc32)sc(C)c1C,3.5,,"1.84 µM [rising, partial curve]"
Cc1ccc(NC(=O)c2cccnc2)cc1S(=O)(=O)N1CCOCC1,,,"3.66 µM [rising, partial curve]"
c1ccc(-c2ncc(CSc3nncn3-c3ccccc3)s2)cc1,,"0.82 µM [rising, partial curve]","1.46 µM [rising, partial curve]"

# Reformatted bar-delimited: part of the list above
Structure (SMILES) | cell number change [%] | AC50 [1] | AC50 [2]
O=C(NNC(=S)Nc1ccc(F)cc1F)c1ccco1 | -14.4 |  | 
CC(=O)Nc1ccc(Oc2ccc(S(=O)(=O)N3CCCC3)cn2)cc1 | 2.73 | 0.231 µM [falling, partial curve, poor fit] | 
CCCn1c(=N)n(CC(=O)c2ccc(Cl)cc2)c2ccccc21 | 1.05 |  | 
Cc1c(OCc2ccccc2)c(=O)ccn1Cc1ccc(Cl)cc1 | -64.9 | 18.4 µM [falling, single point] | 29.1 µM [falling, single point]
CCOc1cccc(N(C(=O)CCC(=O)Nc2cc(C)on2)C(C(=O)NC(C)(C)C)c2ccc(OC)cc2)c1 (stereo not given) | -1.28 |  | 5.17 µM [rising, single point]
O=C(CSc1nc2ccc(Cl)cc2[nH]1)NCc1ccco1 | 0.0701 |  | 
COCCNC(=O)Cn1cc(C(=O)c2ccco2)c2ccccc21 | 18.7 | 0.461 µM [falling, single point] | 
Cc1[nH]n(-c2ccccc2)c(=O)c1N=Nc1cccc(Cl)c1 | -5.96 |  | 3.26 µM [falling, single point]
C[C@H](NC(=O)c1nc[nH]c1C(=O)N[C@@H](CCCCNC(=O)OC(C)(C)C)C(=O)OC(C)(C)C)C(=O)OCc1ccccc1 | 44.6 |  | 25.9 µM [falling, single point]
